Laboratory results published in PubChem BioAssay AID504834 (National Center for Advancing Translational Sciences (NCATS), 2011).
Hit rate of the full screen: of about 320,000 compounds, about 22,000 (6.9%) were called active. Inconclusive means that the source gave no clear call. Such entries were picked first, then a sample of the others. Calls follow the shape of the dose curve; as a rule, active = well fitted inhibition curve with a large enough effect; inconclusive = small, poorly fitted or top-dose-only effect, or another doubt; inactive = no such curve, though single readings can be large or run the other way. Where the call is inconclusive, the potency comes from a doubtful curve fit.

Assay: Primary qHTS for delayed death inhibitors of the malarial parasite plastid, 96 hour incubation
Settings: P. falciparum luciferase reporter growth; series mostly up to 28.7 µM; activity change, negative = inhibition: at the top concentration
Method in brief: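 Plates of compound plus infected erythrocytes (2% hematocrit, 0.05% parasitemia final) incubate 96 hours, 37 C, 5% CO2. Detection reagent added; reduced luminescence from the parasites' luciferase reporter flags inhibition.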
% is scaled to controls: 0 for no effect and ±100 for the full control effect; potency is read from the fitted curve at half-maximal effect.

Row | SMILES | Potency | activity change, negative = inhibition
1 | O=C(COC(=O)/C=C/c1cccc(Cl)c1)NC(=O)NCc1ccccc1 | inconclusive: 10.4 µM [inhibitor, single point] | –
2 | CC(=O)Nc1ccc(S(=O)(=O)Nc2nc3n(n2)C(c2ccccc2)CC(=O)N3)cc1 (stereo not drawn) | inconclusive: 3.7 µM [inhibitor, full curve] | –
3 | COCCn1c(=S)[nH]c2cc(C(=O)N(CCO)Cc3ccccc3)ccc2c1=O | inconclusive: 13.1 µM [inhibitor, partial curve, poor fit] | –
4 | NC(=O)CSc1nnnn1-c1ccc(OC(F)(F)F)cc1 | active: 0.185 µM | –
5 | COc1c2n(C)ccc3c-2n(c(=O)c1=O)c1ccccc31 | inconclusive: 9.28 µM [inhibitor, partial curve, poor fit] | –
6 | O=C(c1cccc(S(=O)(=O)N2CCc3ccccc32)c1)N1CCCC(C(F)(F)F)C1 (stereo not drawn) | inconclusive: 13.1 µM [inhibitor, partial curve] | –
7 | Cc1ccc(NC(=O)c2nc[nH]c2C(=O)N[C@@H](CCCCNC(=O)OC(C)(C)C)C(=O)OC(C)(C)C)cc1 | active: 11.7 µM | –
8 | COc1cccc(Nc2ncnc3sccc23)c1 | – | inactive: 166%
9 | S=C(Nc1ccccc1Cl)N1CCOCC1 | – | inactive: 10.7%
10 | Cc1ccccc1Nc1nc(N)nc(COC(=O)c2cccn2C)n1 | – | inactive: 59.5%
11 | CC(C)OCCCNc1ncnc2c1cnn2-c1ccccc1 | inconclusive: 0.0928 µM [inhibitor, full curve, poor fit] | –
12 | COc1cccc(N2CC(=O)N(NC(=O)CSc3nc(C)cc(C)c3C#N)CC2=O)c1 | inconclusive: 14.7 µM [inhibitor, single point] | –
13 | O=C1C=C(c2cccc(Br)c2)C[C@@H](c2ccc3c(c2)OCO3)C1 | inconclusive: 16.5 µM [inhibitor, single point] | –
14 | Nc1nonc1-n1nnc(C(=O)N/N=C/c2ccc3c(c2)OCO3)c1-c1ccccc1 | inconclusive: 7.38 µM [inhibitor, partial curve] | –
15 | Cc1ccc(S(=O)(=O)NC(C(=O)OCC(=O)NC(=O)c2cccn2C)C(C)C)cc1 (stereo not drawn) | inconclusive: 0.185 µM [inhibitor, partial curve, poor fit] | –
16 | CCN(c1ccccc1)S(=O)(=O)c1ccc(OC)c(NC(=O)Cc2ccccc2OC)c1 | active: 13.1 µM | –
17 | CCCn1c2ccccc2c2nnc(SCC(=O)Nc3c(C)n(C)n(-c4ccccc4)c3=O)nc21 | inconclusive: 10.4 µM [inhibitor, single point] | –
18 | Cc1ccccc1C(=O)c1cccn1CC(=O)NCCCc1ccccc1 | inconclusive: 1.47 µM [inhibitor, partial curve, poor fit] | –
19 | Cc1cccc(CCNc2nc3ccccc3n3nnnc23)c1 | inconclusive: 0.104 µM [inhibitor, full curve, poor fit] | –
20 | CCCc1ccc2oc(C(=O)NCCc3nc(C(=O)OCC)cs3)c(C)c2c1 | – | inactive: 14.9%
21 | O=C(CSc1nnnn1Cc1ccccc1)c1ccccc1F | inconclusive: 14.7 µM [inhibitor, partial curve, poor fit] | –
22 | CC(=O)c1c(C)[nH]c(C(=O)Nc2nc(C)cs2)c1C | – | inactive: 121%

Entries of single compounds as entered above:
Nc1nonc1-n1nnc(C(=O)N/N=C/c2ccc3c(c2)OCO3)c1-c1ccccc1 as listed: Potency: inconclusive: 7.38 µM [inhibitor, partial curve]
O=C1C=C(c2cccc(Br)c2)C[C@@H](c2ccc3c(c2)OCO3)C1 as listed: Potency: inconclusive: 16.5 µM [inhibitor, single point]

Additional records.

Row | SMILES | Potency | activity change, negative = inhibition
23 | O=C(CCc1ccccc1)Nc1ccccc1C(F)(F)F | – | inactive: -5.21%
24 | CCOc1ccc(NC(=O)COc2cccc3c2CCN(Cc2cccnc2)C3=O)cc1 | inconclusive: 3.29 µM [inhibitor, partial curve, poor fit] | –
25 | O=C1N=C(N2CCOCC2)S/C1=C\c1ccc(-c2ccccc2Cl)o1 | inconclusive: 0.738 µM [inhibitor, full curve, poor fit] | –
26 | O=C(c1ccc(Cl)cc1)N1CCN(S(=O)(=O)/C=C/c2ccccc2)CC1 | inconclusive: 13.1 µM [inhibitor, single point] | –
27 | O=C(c1ccc(Cl)c([N+](=O)[O-])c1)N(Cc1ccc(Cl)cc1)C1CCS(=O)(=O)C1 (stereo not drawn) | inconclusive: 11.7 µM [inhibitor, partial curve, poor fit] | –
28 | O=C(NCc1n[nH]c(=S)n1-c1ccc(F)cc1)c1ccc(S(=O)(=O)N2CCCC2)cc1 | inconclusive: 10.4 µM [inhibitor, partial curve] | –
29 | COc1cc(C)ccc1N(CCCN1C(=O)c2cccc3cccc(c23)C1=O)C(=O)c1cccs1 | active: 9.28 µM | –
30 | Nc1c(-c2nn[nH]n2)cnn1-c1cc(Cl)cc(Cl)c1 | – | inactive: 25.8%
31 | OCc1nc2ccccc2n1CCc1ccccc1 | inconclusive: 8.28 µM [inhibitor, partial curve, poor fit] | –
32 | CCOC(=O)c1ccc(NC(=S)Nc2ccccc2)cc1 | – | inactive: 34.4%
33 | Cc1c(NC(=O)CSc2nnc(-c3ccco3)n2-c2ccccc2)c(=O)n(-c2ccccc2)n1C | inconclusive: 6.57 µM [inhibitor, partial curve] | –
34 | COc1ccc(NS(=O)(=O)c2cc(-c3cnc(C4CC4)o3)ccc2C)cc1 | inconclusive: 18.5 µM [inhibitor, single point] | –
35 | CC(=O)c1c(C)[nH]c(C(=O)OCc2ccc(Br)cc2)c1C | – | inactive: 46.3%
36 | COc1ccccc1N1C(=O)C2C(C(=O)c3ccccc3)=NN(c3ccc(Br)cc3)C2C1=O (stereo not drawn) | inconclusive: 11.7 µM [inhibitor, single point] | –
37 | Cn1c(=O)c2c(nc(SCCN3CCOCC3)n2Cc2ccccc2Cl)n(C)c1=O | inconclusive: 0.0026 µM [inhibitor, full curve, poor fit] | –
38 | Cc1csc(NC(=O)CSc2nncs2)n1 | – | inactive: 21.8%
39 | Cc1nn(C)c(C)c1CN(C(=O)CCc1nnc(Cc2c[nH]c3ccccc23)o1)C(C)C | inconclusive: 18.5 µM [inhibitor, single point] | –
40 | COc1ccc(Cn2c(C3CCCCC3)nc3c(c(=O)c4ccccc4n3C)c2=O)cc1 | active: 2.33 µM | –
41 | CSc1nc(-c2ccc(Cl)cc2)nn1C(=O)c1ccccc1 | active: 1.31 µM | –
42 | O=C(NCc1nnc(SCc2ccc(F)cc2)n1-c1ccc(F)cc1)C12CC3CC(CC(C3)C1)C2 | inconclusive: 7.38 µM [inhibitor, partial curve, poor fit] | –
43 | CCOc1ccc(S(=O)(=O)Nc2nc3ccc(OC)cc3s2)cc1 | – | inactive: 1.24%
